In paper PMC11438709:
Results are given in words; binding and its absence hold for the method and conditions named. In cells and extracts the contact can be indirect. A result given as binding can be weak or reduced; the word gives no strength. For some assays here: Tags and fused reporters may be left off the sequences shown.

Assays:
[1] = biological target: T1, PKCzeta (human (endogenous in HUVECs)) (UniProt Q05513); experiment: co-IP; 2.5 ug PKCzeta antibody added to 500 ug HUVEC lysate with protein A+G magnetic beads, 2 h; western blot for Akt; cells treated with ox-LDL, with or without ZIP (1 uM, 40 min) and Cav1 shRNA
T1 sequence: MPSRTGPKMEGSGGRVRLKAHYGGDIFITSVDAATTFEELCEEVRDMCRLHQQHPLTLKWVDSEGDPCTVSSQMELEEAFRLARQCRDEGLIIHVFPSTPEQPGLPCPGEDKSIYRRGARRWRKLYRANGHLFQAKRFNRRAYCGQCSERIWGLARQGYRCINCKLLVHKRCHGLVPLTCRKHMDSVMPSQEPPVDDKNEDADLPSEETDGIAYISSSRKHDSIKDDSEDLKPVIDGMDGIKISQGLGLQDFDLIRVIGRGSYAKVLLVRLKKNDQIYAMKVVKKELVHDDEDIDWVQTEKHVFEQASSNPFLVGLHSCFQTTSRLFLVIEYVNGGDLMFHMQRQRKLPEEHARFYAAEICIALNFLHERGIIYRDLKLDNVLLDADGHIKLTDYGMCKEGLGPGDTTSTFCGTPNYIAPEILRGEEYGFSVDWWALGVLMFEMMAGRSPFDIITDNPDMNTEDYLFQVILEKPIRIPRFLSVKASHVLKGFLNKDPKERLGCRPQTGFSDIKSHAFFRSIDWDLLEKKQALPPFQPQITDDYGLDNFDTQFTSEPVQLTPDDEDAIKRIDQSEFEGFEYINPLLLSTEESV

[2] = biological target: T2, GST-tagged PKCzeta protein (UniProt Q05513); experiment: pull-down; GST Pull-down Kit; purified GST-tagged PKCzeta as bait on the gel (3 h), HUVEC extracts bound for 4 h, 4 washes, western blot for Akt; cells treated with ox-LDL, with or without ZIP (1 uM, 40 min) and Cav1 shRNA; only the target purified
T2 sequence: T1 sequence

- binding [1]: binds
- binding [2]: binds
Substance: Akt (human (endogenous in HUVECs))
